According to US20260199529A1, “EPITHELIAL CELL ADHESION MOLECULE-SPECIFIC PEPTIDE CONJUGATES AND METHODS” (REGENTS OF THE UNIVERSITY OF MICHIGAN, priority 2022, published 2026):
Results are given in words; binding and its absence hold for the method and conditions named. Some results given as binding are weak or reduced against the parent protein; the word gives no strength.

Columns and labels:
[1] = target: T1, Epithelial cell adhesion molecule (EpCAM) (human) (UniProt P16422); assay: competition against HPD*-IRDye800 on cells, fluorescence intensity
T1 sequence (looked up): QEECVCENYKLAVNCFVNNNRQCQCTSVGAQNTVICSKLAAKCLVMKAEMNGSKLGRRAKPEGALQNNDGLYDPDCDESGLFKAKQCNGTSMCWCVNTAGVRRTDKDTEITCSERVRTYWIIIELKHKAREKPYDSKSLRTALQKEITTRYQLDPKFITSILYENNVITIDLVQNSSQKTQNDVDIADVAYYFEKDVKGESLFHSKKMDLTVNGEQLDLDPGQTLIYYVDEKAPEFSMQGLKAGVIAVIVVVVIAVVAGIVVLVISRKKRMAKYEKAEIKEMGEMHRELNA

[2] = target: T1, Epithelial cell adhesion molecule (EpCAM) (human); assay: competition against HPD*-IRDye800 on cells, 0-120 mM as printed
[3] = target: T1, Epithelial cell adhesion molecule (EpCAM) (human); assay: immunofluorescence on human HCC specimens ex vivo
[4] = target: T1, Epithelial cell adhesion molecule (EpCAM) (human); assay: immunofluorescence on lung sections of the human HCC PDX model
[5] = target: T1, Epithelial cell adhesion molecule (EpCAM) (human); assay: confocal microscopy, siRNA knockdown of EpCAM in Hep3B cells
[6] = target: T1, Epithelial cell adhesion molecule (EpCAM) (human); assay: immunofluorescence on sections of human HCC xenograft tumor in mouse liver
[7] = target: T1, Epithelial cell adhesion molecule (EpCAM) (human); assay: confocal microscopy on Hep3B cells
[8] = target: T1, Epithelial cell adhesion molecule (EpCAM) (human); assay: immunofluorescence on liver sections of the human HCC PDX model
[9] = target: T1, Epithelial cell adhesion molecule (EpCAM) (human); assay: co-localization by confocal microscopy on Hep3B cells

Measured: binding

HPDMFTRTHSHN [unlabeled HPD*]
binds: [1] | [2]

HPDMFTRTHSHNGGGSC (IRDye800 attached via the C-terminal GGGSC linker) [HPD*-IRDye800]
not listed: [1] | [2]
binds: all other assays above
